This is an account of results in article PMC10674255.

The test deals with T1, FLAG-tagged human IRF3 (human) (UniProt Q14653).
T1 sequence: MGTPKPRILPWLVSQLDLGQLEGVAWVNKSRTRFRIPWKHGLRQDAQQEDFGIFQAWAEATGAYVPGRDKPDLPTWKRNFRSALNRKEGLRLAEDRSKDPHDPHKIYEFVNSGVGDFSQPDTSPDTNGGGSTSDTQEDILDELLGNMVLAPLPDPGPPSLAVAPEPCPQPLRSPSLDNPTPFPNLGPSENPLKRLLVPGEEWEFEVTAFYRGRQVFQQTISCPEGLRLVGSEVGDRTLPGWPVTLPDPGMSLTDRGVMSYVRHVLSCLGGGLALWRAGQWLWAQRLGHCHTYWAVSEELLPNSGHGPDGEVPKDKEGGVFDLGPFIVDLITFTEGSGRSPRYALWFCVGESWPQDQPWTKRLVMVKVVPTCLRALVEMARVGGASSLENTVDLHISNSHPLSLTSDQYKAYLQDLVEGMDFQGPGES
The test can be described thus: pull-down; cell-free interaction assay: FLAG proteins from separately transfected 293T lysates immunoprecipitated on FLAG beads and washed, then HA-peptide-eluted (partially purified) HA-TRIM40 from 293T added; both purified.

No constants are given. Whether binding was seen depends on the method and setting. Tags and fused reporters may be left off the sequences shown.

B1: human HA-TRIM40 (protein, UniProt Q6P9F5 1-258)
chain: MIPLQKDNQEEGVCPICQESLKEAVSTNCGHLFCRVCLTQHVEKASASGVFCCPLCRKPCSEEVLGTGYICPNHQKRVCRFCEESRLLLCVECLVSPEHMSHHELTIENALSHYKERLNRRSRKLRKDIAELQRLKAQQEKKLQALQFQVDHGNHRLEAGPESQHQTREQLGALPQQWLGQLEHMPAEAARILDISRAVTQLRSLVIDLERTAKELDTNTLKNAGDLLNRSAPQKLEVIYPQLEKGVSELLLQPPQKL
B1: the binding result is “no binding”.
